# According to the supplement of paper PMC9135407:
# Several values for one entry are separate records, joined by “and”; a condition that tells them apart may be missing. Equal entries are not always repeated. Structures can show the parent of a compound that is named as a salt. ± gives the standard deviation of the averaged measurements. The list shows a part of the results. Baselines shift from plate to plate; read single values as rough.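 Culture-activated primary human stellate myofibroblasts, where regained lipid droplets signal inactivation. Value: share of Hoechst-counted cells above a per-plate Bodipy cutoff, in duplicate wells, with DMSO negative and nortriptyline positive controls on each plate. Hits: a control-normalized score above the plate's top-tenth-percentile nortriptyline wells, or one of a plate's three best wells. Final well concentrations are not given.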
# Test system: primary human hepatic stellate cells (donor 1)
# Experiment: percent Bodipy-positive cells; higher = more lipid droplet accumulation
# Conditions: 48 h
# [1] = library stock concentration: 1 mM
# [2] = library stock concentration: 3.33 mM
# [3] = library stock concentration: 10 mM
# [4] = library stock concentration: 8.1 mM
# [5] = library stock concentration: 80 uM
# [6] = library stock concentration: 400 uM
# [7] = library stock concentration: 2 mM
smiles,measurement,setting,value
O=C(O)CCC/C=C\C[C@@H]1[C@@H](/C=C/[C@@H](O)Cc2ccccc2)[C@H](O)C[C@@H]1O [16-phenyl tetranor Prostaglandin F2.alpha.],percent Bodipy-positive cells,[1],19 ± 3.8%
O=C(c1ccccc1)c1ccc2nc(NC(=O)c3csc(C4CCN(c5ncnc6ccsc56)CC4)n3)[nH]c2c1,percent Bodipy-positive cells,[2],39.3 ± 9.5%
same,percent Bodipy-positive cells,[3],32.8 ± 11%
"CCCCCC(O)C=CC1C2CC(CO2)C1CCCCCCC(=O)O (stereo not drawn) [9,11-methane-epoxy Prostaglandin F1.alpha.]",percent Bodipy-positive cells,[1],5.29 ± 0.7%
COC(=O)[C@H]1[C@H]2C[C@H]3c4[nH]c5ccccc5c4CCN3C[C@H]2CC[C@@H]1O [Rauwolscine hydrochloride],percent Bodipy-positive cells,,52.2 ± 40%
same,percent Bodipy-positive cells,[3],17.7% and 10.5%
COC(=O)C(C)(N)Cc1ccc(O)cc1 (racemic) [alpha-Methyl-DL-tyrosine methyl ester hydrochloride],percent Bodipy-positive cells,[3],42.5 ± 5.1%
CC(C)NCC(O)COc1cccc2[nH]ccc12 (stereo not drawn),percent Bodipy-positive cells,[3],36.3 ± 6%
CC(C)NCC(O)COc1cccc2[nH]ccc12 (stereo not drawn) [Pindolol],percent Bodipy-positive cells,,27.3 ± 0.67%
same,percent Bodipy-positive cells,[4],7.99% and 10.4%
OC(CCN1CCCC1)(c1ccccc1)C1CCCCC1 (stereo not drawn) [Procyclidine hydrochloride],percent Bodipy-positive cells,,38 ± 8.3%
same,percent Bodipy-positive cells,library stock concentration: 6.2 mM,62.3 ± 2.3%
same,percent Bodipy-positive cells,[3],62.8 ± 1%
c1ccc(\C(\c2c3cccc2)=C\CCNC)c(C=C3)c1 [Norcyclobenzaprine],percent Bodipy-positive cells,,90.5 ± 5.2%
CN(Cc1cc(Br)cc(Br)c1N)C1CCCCC1 [Bromhexine HCl],percent Bodipy-positive cells,[2],28 ± 26%
same,percent Bodipy-positive cells,library stock concentration: 5.3 mM,11.2 ± 0.69%
same,percent Bodipy-positive cells,[3],52.7 ± 11%
CN(Cc1cc(Br)cc(Br)c1N)C1CCCCC1 [Bromhexine hydrochloride],percent Bodipy-positive cells,library stock concentration: 4.8 mM,45 ± 2.9%
same,percent Bodipy-positive cells,[3],38.4 ± 14%
C[C@H](CS)C(=O)N1CCC[C@H]1C(=O)O [Captopril],percent Bodipy-positive cells,,22.7 ± 0.37%
same,percent Bodipy-positive cells,[2],10.8 ± 2.3%
same,percent Bodipy-positive cells,library stock concentration: 9.2 mM,12.4% and 12.7%
C[C@H](CS)C(=O)N1CCC[C@H]1C(=O)O,percent Bodipy-positive cells,[3],18.6 ± 2.6%
Br.Br.CN(C)CCCc1cc(C(=O)Nc2ccc(-c3ccncc3)cc2)ccc1O,percent Bodipy-positive cells,[3],97.66 ± 0.37%
CC1(C)O[C@@H]2C[C@H]3[C@@H]4C[C@H](F)C5=CC(=O)C=C[C@]5(C)[C@H]4[C@@H](O)C[C@]3(C)[C@]2(C(=O)CO)O1 [Flunisolide],percent Bodipy-positive cells,,3.47 ± 1%
same,percent Bodipy-positive cells,[3],12 ± 2.1%
CC1(C)O[C@@H]2C[C@H]3[C@@H]4C[C@H](F)C5=CC(=O)C=C[C@]5(C)[C@H]4[C@@H](O)C[C@]3(C)[C@]2(C(=O)CO)O1 [FluniSOLIDe],percent Bodipy-positive cells,[3],79.2 ± 1.6%
CN(C)CCCCC(=O)Nc1ccc(NC(=S)NC(=O)c2ccc(C(C)(C)C)cc2)cc1 [Tenovin-6],percent Bodipy-positive cells,[2],98.4 ± 1.5%
Cn1cnc2c(F)c(Nc3ccc(Br)cc3Cl)c(C(=O)NOCCO)cc21 [Selumetinib (AZD6244)],percent Bodipy-positive cells,[2],8.12 ± 6.6%
same,percent Bodipy-positive cells,[3],16.7 ± 10%
Cn1cnc2c(F)c(Nc3ccc(Br)cc3Cl)c(C(=O)NOCCO)cc21,percent Bodipy-positive cells,[5],12.2 ± 8.1%
same,percent Bodipy-positive cells,[6],11.4% and 12.6%
same,percent Bodipy-positive cells,[7],6.82% and 19.3%
Nc1nc(N)c2nc(-c3cccc(O)c3)c(-c3cccc(O)c3)nc2n1,percent Bodipy-positive cells,[2],7.07 ± 3.9%
same,percent Bodipy-positive cells,[3],13.2 ± 1.1%
CCCCCCCCCCCCCCCC(=O)N[C@H](CN1CCOCC1)[C@H](O)c1ccccc1 (racemic),percent Bodipy-positive cells,[1],8.13 ± 3.6%
NC(=O)c1ccccc1 [Benzamide],percent Bodipy-positive cells,[3],38.7 ± 10%
CC(C)=CCC/C(C)=C/CC/C(C)=C/CC[C@]1(C)CCc2cc(O)cc(C)c2O1 [.delta.-Tocotrienol],percent Bodipy-positive cells,[1],9.74 ± 5.2%
NC(N)=NC(N)=Nc1ccccc1 [1-Phenylbiguanide],percent Bodipy-positive cells,[3],18.1 ± 5%
CC(C)=CCCC(C)(OC1OC(COC2OCC(O)C(O)C2O)C(O)C(O)C1O)C1CCC2(C)C1C(O)CC1C3(C)CCC(OC4OC(CO)C(O)C(O)C4O)C(C)(C)C3CCC12C (stereo not drawn) [Gynostemma Extract],percent Bodipy-positive cells,[2],5.73 ± 1.2%
same,percent Bodipy-positive cells,[3],18.3 ± 3.4%
Nc1ncnc2c1c(-c1cccc(OCc3ccccc3)c1)cn2[C@H]1C[C@@H](CN2CCC2)C1,percent Bodipy-positive cells,[2],80.4 ± 13%
same,percent Bodipy-positive cells,[3],96.5 ± 1.2%
NCCc1ccc(O)c(O)c1 [Dopamine HCl],percent Bodipy-positive cells,[2],4.89 ± 1.1%
same,percent Bodipy-positive cells,[3],9.16 ± 1%
NCCc1ccc(O)c(O)c1 [Intropin],percent Bodipy-positive cells,[3],29.6 ± 0.4%
C[C@H](Cc1ccc(O)c(O)c1)[C@@H](C)Cc1ccc(O)c(O)c1,percent Bodipy-positive cells,[3],43.4 ± 5.2%
CCCCCC(O)CCCC(=O)O (stereo not drawn) [5-hydroxydecanoic acid sodium],percent Bodipy-positive cells,[3],36.07 ± 0.29%
CCCNC(=O)[C@H]1O[C@@H]1C(=O)N[C@H](C(=O)N1CCC[C@H]1C(=O)OC)C(C)CC (stereo partly drawn),percent Bodipy-positive cells,library stock concentration: 12.6 mM,82.1 ± 0.46%
OC[C@@H](O)CN1CCN(c2ccccc2)CC1 [Levodropropizine],percent Bodipy-positive cells,[2],9.09 ± 0.35%
same,percent Bodipy-positive cells,[3],38.9 ± 22%
N#CC1(c2ccc(NC(=O)c3cccnc3NCc3ccncc3)cc2)CCCC1 [Apatinib],percent Bodipy-positive cells,[2],9.41 ± 0.89%
same,percent Bodipy-positive cells,[3],53.2 ± 5.7%
CCCNC(=O)N1N=C(c2ccc(N)cc2)c2cc3c(cc2C1C)OCO3 (stereo not drawn),percent Bodipy-positive cells,[3],6.8 ± 4%
COc1cc(N)c(Cl)cc1C(=O)OCCN1CCCCC1,percent Bodipy-positive cells,[3],42.7 ± 4.7%
Cc1c(Nc2ncccc2C(=O)O)cccc1C(F)(F)F [Flunixin meglumine],percent Bodipy-positive cells,,6.35 ± 1.8%
Cc1c(Nc2ncccc2C(=O)O)cccc1C(F)(F)F [Flunixin Meglumin],percent Bodipy-positive cells,[2],7.18 ± 1.2%
same,percent Bodipy-positive cells,[3],13.7 ± 1.1%
CC[C@H](c1ccc(O)cc1)[C@@H](CC)c1ccc(O)cc1 [Hexestrol],percent Bodipy-positive cells,,8.96 ± 3.5%
same,percent Bodipy-positive cells,[2],11.3 ± 2.3%
O=C(Cc1ccccc1)NO [Phenylacetohydroxamic acid],percent Bodipy-positive cells,[3],30.3 ± 6.9%
COc1cc(Nc2ncc(F)c(Nc3ccc4c(n3)NC(=O)C(C)(C)O4)n2)cc(OC)c1OC,percent Bodipy-positive cells,[3],94 ± 3.1%
CC1O[C@H](O[C@]2(O[C@H]3CC[C@@]4(C)C(=CC[C@H]5[C@@H]6C[C@H]7[C@H]([C@H](C)[C@H]8CC[C@H](C)CN87)[C@@]6(C)CC[C@@H]54)C3)C[C@@H](O[C@@H]3OC(CO)[C@@H](O)[C@@H](O)C3O)[C@@H](O)C(CO)O2)C(O)[C@@H](O)[C@H]1O (stereo partly drawn) [Solanine alpha],percent Bodipy-positive cells,,29.7 ± 1.4%
COc1ccc(CNc2nc(N3CCC[C@H]3CO)ncc2C(=O)NCc2ncccn2)cc1Cl [Avanafil],percent Bodipy-positive cells,[2],10.5 ± 1.2%
same,percent Bodipy-positive cells,[3],44.7 ± 4.1%
Nc1ncnc2c1ncn2C1CCCC1 [9-cyclopentyladenine],percent Bodipy-positive cells,[3],48.7 ± 1.7%
CCOC(=O)C1=C(C)NC(C)=C(C(=O)OC)C1c1cccc(Cl)c1Cl (stereo not drawn) [Felodipine],percent Bodipy-positive cells,[3],94.1 ± 1.6%
C[C@]12CCC(=O)C=C1CC[C@@H]1[C@@H]2[C@@H](O)C[C@@]2(C)[C@H]1CC[C@]2(O)C(=O)COP(=O)(O)O [Hydrocortisone phosphate triethylamine],percent Bodipy-positive cells,library stock concentration: 3.1 mM,2.71 ± 0.11%
O=C1NC(c2cccc([N+](=O)[O-])c2)=CCN1c1ccccc1O [Icilin],percent Bodipy-positive cells,[1],13 ± 1.2%
CC(=O)OCC(=O)[C@@]1(O)CC[C@H]2[C@@H]3CCC4=CC(=O)C=C[C@]4(C)[C@H]3[C@@H](O)C[C@@]21C [Prednisolone acetate],percent Bodipy-positive cells,library stock concentration: 5 mM,9.36 ± 0.76%
same,percent Bodipy-positive cells,[3],16.7 ± 0.49%
CC(=O)OCC(=O)[C@@]1(O)CC[C@H]2[C@@H]3CCC4=CC(=O)C=C[C@]4(C)[C@H]3[C@@H](O)C[C@@]21C,percent Bodipy-positive cells,[3],27.2 ± 8.2%
COc1cc(C(=O)OCCCN2CCCN(CCCOC(=O)c3cc(OC)c(OC)c(OC)c3)CC2)cc(OC)c1OC.Cl.Cl,percent Bodipy-positive cells,[3],93.29 ± 0.21%
CC[C@]1(O)C[C@H]2CN(CCc3c([nH]c4ccccc34)[C@@](C(=O)OC)(c3cc4c(cc3OC)N(C=O)[C@H]3[C@@](O)(C(=O)OC)[C@H](OC(C)=O)[C@]5(CC)C=CCN6CC[C@]43[C@@H]65)C2)C1.O=S(=O)(O)O [Vincristine sulfate],percent Bodipy-positive cells,[3],84.32 ± 0.32%
CN1CCN(C(=O)c2cc3cc(Cl)ccc3[nH]2)CC1,percent Bodipy-positive cells,[2],18.7 ± 1.3%
same,percent Bodipy-positive cells,[3],63.1 ± 14%
COc1ccc(Cl)cc1NC(=O)Nc1cc(C)nc2ccccc12,percent Bodipy-positive cells,[3],98.85 ± 0.83%
"COc1cc(SC)ccc1C(=O)N1CCC(Cc2ccccc2)CC1 [p38 MAP Kinase Inhibitor VI, JX401]",percent Bodipy-positive cells,[2],26.2 ± 6.8%
CC#C[C@]1(O)CC[C@H]2[C@@H]3CCC4=CC(=O)CCC4=C3[C@@H](c3ccc(N(C)C)cc3)C[C@@]21C,percent Bodipy-positive cells,[3],8.81 ± 1.5%
CC#C[C@]1(O)CC[C@H]2[C@@H]3CCC4=CC(=O)CCC4=C3[C@@H](c3ccc(N(C)C)cc3)C[C@@]21C [Mifepristone],percent Bodipy-positive cells,,20.7 ± 4.1%
same,percent Bodipy-positive cells,[1],5.33 ± 1.1%
same,percent Bodipy-positive cells,[2],7.69 ± 0.82%
same,percent Bodipy-positive cells,library stock concentration: 4.7 mM,9.77 ± 5.4%
CCc1cccc(CC)c1NC(=O)N1Cc2[nH]nc(NC(=O)c3ccc(N4CCN(C)CC4)cc3)c2C1,percent Bodipy-positive cells,[2],30 ± 3.2%
same,percent Bodipy-positive cells,[3],73.5 ± 5.6%
CC[C@@H]1C(=O)N(C)c2cnc(Nc3ccc(C(=O)N[C@H]4CC[C@H](N5CCN(CC6CC6)CC5)CC4)cc3OC)nc2N1C(C)C [Volasertib],percent Bodipy-positive cells,[5],15.3 ± 0.69%
same,percent Bodipy-positive cells,[6],27.1 ± 0.44%
same,percent Bodipy-positive cells,[7],35.9 ± 1.2%
COC(=O)N[C@@H](C)CNc1nccc(-c2cn(C(C)C)nc2-c2cc(Cl)cc(NS(C)(=O)=O)c2F)n1,percent Bodipy-positive cells,[2],34.7 ± 16%
same,percent Bodipy-positive cells,[3],79.6 ± 7.1%
CS(=O)(=O)O.N=C(NC(=O)c1nc(Cl)c(N)nc1N)Nc1ccccc1 [Phenamil methanesulfonate],percent Bodipy-positive cells,[3],99.5 ± 0.28%
CCC1(O)CC2CN(CCc3c([nH]c4ccccc34)[C@@](C(=O)OC)(c3cc4c(cc3OC)N(C=O)C3[C@]45CCN4CC=C[C@@](CC)([C@@H](OC(C)=O)[C@]3(O)C(=O)OC)[C@H]45)C2)C1.O=S(=O)(O)O (stereo partly drawn) [Vincristine sulfate],percent Bodipy-positive cells,[3],90.8 ± 1.8%
Cl.N/C(=N\C(=O)c1nc(Cl)c(N)nc1N)NCc1ccc(Cl)cc1Cl,percent Bodipy-positive cells,library stock concentration: 11.8 mM,96.8 ± 1.1%
COc1ccc(Cl)cc1C(=O)NCCc1ccc(S(=O)(=O)NC(=O)NC2CCCCC2)cc1 [Glybenclamide],percent Bodipy-positive cells,[3],50.7 ± 18%
COc1ccc(Cl)cc1C(=O)NCCc1ccc(S(=O)(=O)NC(=O)NC2CCCCC2)cc1 [Glyburide],percent Bodipy-positive cells,[2],7.24 ± 5.6%
same,percent Bodipy-positive cells,library stock concentration: 4 mM,6.55% and 11.7%
COc1ccc(Cl)cc1C(=O)NCCc1ccc(S(=O)(=O)NC(=O)NC2CCCCC2)cc1 [Glibenclamide],percent Bodipy-positive cells,,22.3 ± 9.6%
same,percent Bodipy-positive cells,[3],6.82 ± 0.56%
Cl.O=S(=O)(c1cccc2c(Cl)cccc12)N1CCCNCC1,percent Bodipy-positive cells,[3],94.3 ± 4.4%
Nc1nc(=O)n([C@@H]2CS[C@H](CO)O2)cc1F [Emtricitabine],percent Bodipy-positive cells,[2],6.46 ± 1.5%
same,percent Bodipy-positive cells,[4],8.38 ± 0.61%
same,percent Bodipy-positive cells,[3],12.2 ± 5.3%
CCN(CC)CC#CCOC(=O)C(O)(c1ccccc1)C1CCCCC1.Cl (stereo not drawn) [Oxybutynin Chloride],percent Bodipy-positive cells,[3],89.8 ± 2.4%
